This is an account of results in patent publication US7045613.

Protein sequences, listed by entry. Tags and fused reporters are not part of them. Lines headed by an entry give the natural chain unless they say otherwise; changes in a name come on top.
UniProt P04386: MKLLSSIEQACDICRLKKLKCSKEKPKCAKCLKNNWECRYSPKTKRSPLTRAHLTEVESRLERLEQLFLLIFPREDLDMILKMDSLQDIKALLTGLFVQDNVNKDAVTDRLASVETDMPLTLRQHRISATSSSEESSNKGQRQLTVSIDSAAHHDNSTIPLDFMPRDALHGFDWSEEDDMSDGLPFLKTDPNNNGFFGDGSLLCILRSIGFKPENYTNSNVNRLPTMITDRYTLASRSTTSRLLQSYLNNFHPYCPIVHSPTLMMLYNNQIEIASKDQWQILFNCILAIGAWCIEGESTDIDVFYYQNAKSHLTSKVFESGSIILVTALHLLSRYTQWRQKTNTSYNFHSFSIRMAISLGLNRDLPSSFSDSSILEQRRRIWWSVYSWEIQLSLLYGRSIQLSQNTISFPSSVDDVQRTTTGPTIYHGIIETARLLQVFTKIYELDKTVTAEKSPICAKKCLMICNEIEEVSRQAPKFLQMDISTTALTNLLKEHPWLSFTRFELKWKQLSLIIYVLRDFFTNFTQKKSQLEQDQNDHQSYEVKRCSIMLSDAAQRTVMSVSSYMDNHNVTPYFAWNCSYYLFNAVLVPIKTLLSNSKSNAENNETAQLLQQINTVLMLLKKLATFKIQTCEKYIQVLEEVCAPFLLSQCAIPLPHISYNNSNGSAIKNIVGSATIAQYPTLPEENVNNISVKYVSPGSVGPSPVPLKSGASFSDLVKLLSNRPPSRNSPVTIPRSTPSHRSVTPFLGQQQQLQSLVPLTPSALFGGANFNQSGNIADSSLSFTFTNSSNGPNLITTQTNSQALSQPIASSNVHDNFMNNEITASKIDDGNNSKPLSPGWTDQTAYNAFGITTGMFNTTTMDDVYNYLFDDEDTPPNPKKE

No constants are given. Whether binding was seen depends on the method and setting. Some binding calls cover weakened binding; strength is not graded here.

The target of the assay is T1, IKK-α two-hybrid clone (human) (UniProt O15111).
T1 sequence: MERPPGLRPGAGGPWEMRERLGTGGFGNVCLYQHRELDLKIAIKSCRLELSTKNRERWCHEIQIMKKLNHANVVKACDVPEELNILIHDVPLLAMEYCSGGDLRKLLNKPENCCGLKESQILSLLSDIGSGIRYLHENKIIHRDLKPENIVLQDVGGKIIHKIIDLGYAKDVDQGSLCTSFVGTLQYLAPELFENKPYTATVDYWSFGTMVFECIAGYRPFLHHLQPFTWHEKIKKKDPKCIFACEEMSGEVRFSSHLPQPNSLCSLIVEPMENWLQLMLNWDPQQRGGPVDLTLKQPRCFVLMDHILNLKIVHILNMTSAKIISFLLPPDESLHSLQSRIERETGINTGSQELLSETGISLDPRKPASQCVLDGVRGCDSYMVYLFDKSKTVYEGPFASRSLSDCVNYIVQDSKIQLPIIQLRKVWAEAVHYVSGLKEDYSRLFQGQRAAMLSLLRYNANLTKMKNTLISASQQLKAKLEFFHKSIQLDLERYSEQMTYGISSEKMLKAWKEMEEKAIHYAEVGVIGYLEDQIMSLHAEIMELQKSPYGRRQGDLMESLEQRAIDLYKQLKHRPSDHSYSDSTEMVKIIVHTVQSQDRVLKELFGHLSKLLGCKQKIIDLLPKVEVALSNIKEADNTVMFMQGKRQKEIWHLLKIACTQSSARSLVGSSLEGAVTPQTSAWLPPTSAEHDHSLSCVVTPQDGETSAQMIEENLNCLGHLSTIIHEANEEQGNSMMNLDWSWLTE
Description: yeast two-hybrid, GAL4 DBD-NIK bait, his and lacZ reporters, with retransformation.

Turning to “NIK fused to the DNA-binding domain of the yeast transcription factor GAL4 (from UniProt P04386 1-147; Q99558 1-947)”, the binding result is “binds”.
